The source of these data is article PMC7571625.

Sequences of proteins named here, by UniProt entry; tags and fusion partners are left off.
UniProt Q8TDG2: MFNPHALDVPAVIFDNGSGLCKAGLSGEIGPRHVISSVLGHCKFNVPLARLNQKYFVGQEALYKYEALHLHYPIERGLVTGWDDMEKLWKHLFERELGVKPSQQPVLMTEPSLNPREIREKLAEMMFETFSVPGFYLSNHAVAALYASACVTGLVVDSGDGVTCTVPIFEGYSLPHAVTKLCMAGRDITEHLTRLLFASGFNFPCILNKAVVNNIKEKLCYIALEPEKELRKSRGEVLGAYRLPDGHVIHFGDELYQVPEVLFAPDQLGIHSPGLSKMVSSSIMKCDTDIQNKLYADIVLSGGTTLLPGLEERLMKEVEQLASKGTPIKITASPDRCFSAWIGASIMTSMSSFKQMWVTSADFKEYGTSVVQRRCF

Results are given in words; binding and its absence hold for the method and conditions named. Binding seen in cells or lysates may run through a third protein. A yes stands for co-enrichment or nearness to the bait. Other partners may have been found. For some of these results: A no says only that the protein was not detected with the bait. Where a sequence is shown, tags or fusion partners need not be part of it.

First the molecules themselves.
T1: GFP-ANXA6 (annexin A6) (UniProt P08133)
T1 sequence: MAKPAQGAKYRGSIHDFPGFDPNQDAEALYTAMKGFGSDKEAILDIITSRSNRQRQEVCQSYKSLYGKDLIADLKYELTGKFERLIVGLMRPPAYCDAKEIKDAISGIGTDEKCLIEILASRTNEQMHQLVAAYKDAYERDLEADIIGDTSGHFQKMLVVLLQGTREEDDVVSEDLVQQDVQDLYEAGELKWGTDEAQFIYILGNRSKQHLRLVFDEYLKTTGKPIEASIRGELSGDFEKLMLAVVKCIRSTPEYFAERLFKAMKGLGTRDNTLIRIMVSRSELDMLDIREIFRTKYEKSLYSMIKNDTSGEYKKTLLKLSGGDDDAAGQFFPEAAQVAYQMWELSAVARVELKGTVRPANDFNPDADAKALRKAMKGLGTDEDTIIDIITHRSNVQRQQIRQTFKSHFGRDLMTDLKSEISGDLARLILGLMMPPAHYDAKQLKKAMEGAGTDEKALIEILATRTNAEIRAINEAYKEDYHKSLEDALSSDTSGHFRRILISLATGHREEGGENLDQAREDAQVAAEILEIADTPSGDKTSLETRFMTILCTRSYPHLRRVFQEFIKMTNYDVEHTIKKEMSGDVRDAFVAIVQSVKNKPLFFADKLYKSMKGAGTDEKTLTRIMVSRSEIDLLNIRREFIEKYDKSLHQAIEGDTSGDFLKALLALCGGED

B1: ATG9A, endogenous in HEK293 (protein, UniProt Q7Z3C6 1-839)
chain: MAQFDTEYQRLEASYSDSPPGEEDLLVHVAEGSKSPWHHIENLDLFFSRVYNLHQKNGFTCMLIGEIFELMQFLFVVAFTTFLVSCVDYDILFANKMVNHSLHPTEPVKVTLPDAFLPAQVCSARIQENGSLITILVIAGVFWIHRLIKFIYNICCYWEIHSFYLHALRIPMSALPYCTWQEVQARIVQTQKEHQICIHKRELTELDIYHRILRFQNYMVALVNKSLLPLRFRLPGLGEAVFFTRGLKYNFELILFWGPGSLFLNEWSLKAEYKRGGQRLELAQRLSNRILWIGIANFLLCPLILIWQILYAFFSYAEVLKREPGALGARCWSLYGRCYLRHFNELEHELQSRLNRGYKPASKYMNCFLSPLLTLLAKNGAFFAGSILAVLIALTIYDEDVLAVEHVLTTVTLLGVTVTVCRSFIPDQHMVFCPEQLLRVILAHIHYMPDHWQGNAHRSQTRDEFAQLFQYKAVFILEELLSPIVTPLILIFCLRPRALEIIDFFRNFTVEVVGVGDTCSFAQMDVRQHGHPQWLSAGQTEASVYQQAEDGKTELSLMHFAITNPGWQPPRESTAFLGFLKEQVQRDGAAASLAQGGLLPENALFTSIQSLQSESEPLSLIANVVAGSSCRGPPLPRDLQGSRHRAEVASALRSFSPLQPGQAPTGRAHSTMTGSGVDARTASSGSSVWEGQLQSLVLSEYASTEMSLHALYMHQLHKQQAQAEPERHVWHRRESDESGESAPDEGGEGARAPQSIPRSASYPCAAPRPGAPETTALHGGFQRRYGGITDPGTVPRVPSHFSRLPLGGWAEDGQSASRHPEPVPEEGSEDELPPQVHKV

The first test concerns the target T1, GFP-ANXA6 (annexin A6). As to the kind of experiment: affinity purification with mass spectrometry; HEK293 overexpressing GFP-ANXA6, control or starved in EBSS for 2 h; lysed in IP buffer; pull-down with GFP-Trap Agarose; SDS-PAGE, trypsin digestion, LC-MS/MS, label-free quantitation.
As for RAB11 (human (endogenous in HEK293)), the binding result is on record as “binds”.
Turning to “ACTRT1 (actin-related protein T1) (from UniProt Q8TDG2 1-376)”, the binding entry is given as “binds”.
In the case of RAB7 (human (endogenous in HEK293)), the binding result is “binds”.
On to RAB2 (human (endogenous in HEK293)), for which the binding result was “binds”.
The same measure, in the same setting: the value for RAB8 (human (endogenous in HEK293)) was “binds”; that for RAB5 (human (endogenous in HEK293)) was “binds”.

The next test concerns the target T1, GFP-ANXA6 (annexin A6). The test is described as above. The source holds these as a separate data set.
Regarding B1, the binding entry was “no binding”.
